± gives the standard deviation of the averaged measurements. Some of the results follow. Most values come without repeats; read them as rough.
System: RAW 264.7 macrophages infected with S. aureus JE2-lux
Experiment: host macrophage viability (CellTiter-Fluor) relative to DMSO vehicle; higher = more viable host cells
Conditions: 10 µM; treatment time 4 h; gentamicin 50 µg/ml

SMILES	host macrophage viability [%]
CSc1nc2ccc3nc(NC(=O)CN4C(=O)c5ccccc5C4=O)sc3c2s1	95 ± 3.2
CCc1noc2nc(C(=O)O)nc(N3CCOCC3)c12	95.5
CC1(C)Cc2c(sc(NC(=O)c3ccc4ncsc4c3)c2C(N)=O)C(C)(C)N1	125
Cc1cccc(C2Oc3ccccc3C3CC(c4cccc(NS(C)(=O)=O)c4)=NN32)c1 (configuration not stated)	121
COCCNC(=O)c1nn(C)c2c1CCc1ccccc1-2	121
COc1ccc(Cl)c2sc(N3CCN(C(=O)c4cccc(N5C(=O)CCC5=O)c4)CC3)nc12	104
COc1cccc(C(=O)NCC(=O)N/N=C/c2cccs2)c1	118
CCc1cc2c(=O)n(-c3ccc(Cl)cc3)c(SCC(=O)c3cccs3)nc2s1	122
Cc1cc(C(=O)NC(c2ccccc2)c2ccnn2C)c2cccc(Cl)c2n1 (configuration not stated)	109
O=C(CSC1=NS(=O)(=O)c2ccccc2N1)Nc1ccc2c(c1)OCCO2	120
Cc1nc(Nc2ccc(NS(=O)(=O)c3ccc(F)cc3F)cc2)cc(N(C)C)n1	103
Cc1ccc(C)c2[nH]c(=O)c(CCNC(=O)c3ccccc3F)cc12	119
CCOc1ccc2c(c1)sc1nc(-c3ccc(C(C)C)cc3)c(NCCOC)n12	92.8
CCCn1ncc(C)c1NC(=O)Cn1nc2c(C)cc3ccc(OC)cc3n2c1=O	97.1
CCOc1ccc(NC(=O)Cn2c(=O)c3cccnc3n(-c3ccccc3)c2=O)cc1	115
Cc1c(S(=O)(=O)N2CCC(c3nnc(C(=O)Nc4ccccc4)s3)CC2)cnn1C(F)F	120
COc1ccc(CC(=O)N2CCN(c3c(C)n(C)c(=O)n(C)c3=O)CC2)cc1OC	115
Cc1ccccc1-n1cc(-c2ccccc2)c2c(NC3CCCCC3)ncnc21	95.1
O=C(c1cccnc1)N1CCc2c([nH]c3ccccc23)C1c1ccc(Cl)cc1 (configuration not stated)	122
O=S(=O)(c1cn(Cc2noc(-c3cc4cc(Cl)ccc4[nH]3)n2)cn1)N1CCOCC1	97.9
COc1ccc(/C=C2/SC(Nc3cccnc3)=NC2=O)cc1OC	101 ± 5.1
COc1ccc2cc(C(N)=O)/c(=N/c3cccc(C)c3)oc2c1	112
CCc1ccc(N(CC(=O)Nc2ccccc2OC)C2=NC3CS(=O)(=O)CC3S2)cc1 (configuration not stated)	123
COc1cc(C(=O)N2CCN=C2SCc2ccc([N+](=O)[O-])cc2)cc(OC)c1OC	91.5
O=C(c1ccccc1F)N1CCc2c(nc(N3CCOCC3)[nH]c2=O)C1	135
Cc1ccc(C(=O)CSc2nccn(-c3ccc(Cl)cc3)c2=O)cc1	119

SMILES	host macrophage viability [%]
COc1cc(OC)c(NC(=O)c2c(-c3ccccc3)nnc3ccc(C)cc23)cc1Cl	108
Cc1nc(OCC(=O)Nc2cc(F)ccc2F)c2c(C)c(C)oc2n1	125
Cc1cccn2c(=O)nc(SCc3c(F)cccc3Cl)nc12	113
CCOC(=O)c1nc(NC(C)c2ccccc2)c2c(-c3ccc(F)cc3)noc2n1 (configuration not stated)	91.3
NC(=O)c1nc(Nc2ccccc2)sc1NC(=O)Cc1cccs1	116
O=C(CN1CCC(C(=O)c2ccc(F)cc2)CC1)Nc1cccc2ccccc12	108
COc1cc(-c2noc(CCCn3c(=O)[nH]c4cc5c(cc4c3=O)OCO5)n2)ccc1OC(C)C	121
Cc1nn(-c2ccc3nncn3n2)c2c1C(c1ccccc1OC1CCCC1)CC(=O)N2 (configuration not stated)	96.4
Cc1oc2nc(SCC(=O)NC3CCCCC3)nc(N)c2c1C	105
COc1ccc(NS(=O)(=O)c2ccc(CCN3C(=O)c4cccc5cccc(c45)C3=O)cc2)cc1	120
Cc1cccc(Oc2ncnc(N)c2[N+](=O)[O-])c1C	122
CC(C)(C)C1=NN(CC(=O)Nc2nccs2)C(=O)c2cc3ccccc3n2C1	113
COc1ccc2c(c1)c1nnc(SCC(=O)NC3CCCCC3C)nc1n2C (configuration not stated)	108
Cc1nc2cc(-c3noc(C(C)Oc4ccccc4)n3)ccc2n(C)c1=O (configuration not stated)	122
CCOC(=O)c1ccc(NC(=O)/N=c2\c3ccccc3[nH]c(=O)n2C(C)C)cc1	133
COc1ccc(CCNC(=O)c2cnc3sccn3c2=O)cc1OC	109 ± 4.8
COc1cc(OC)cc(C(=O)NNc2nc3ccc(Cl)cc3s2)c1	102 ± 20
COc1ccc(OC)c(C(=O)CSc2nnc3ncccn23)c1	103
O=C(CSc1nc(-c2ccco2)nc2cc(=O)[nH]n12)NCC1CCCO1 (configuration not stated)	112
COc1ccc(CC(=O)n2nc(-c3ccccc3Cl)nc2N)cc1OC	116
COc1ccc(-c2ccc(SCC(=O)Nc3c[nH]c(=O)[nH]c3=O)nn2)cc1	103
O=C(Cn1ncn2nc(-c3ccccc3)cc2c1=O)NCC1CCCO1 (configuration not stated)	104
O=C(NCC1CCCO1)C1CCCN(c2nccnc2Oc2ccccc2)C1 (configuration not stated)	83.1
O=C(NCCCc1ccccc1)C(=O)NC1CCCC1	105
Cc1ccc(NC(=O)CN2C(=O)C(=O)c3ccccc32)c(C)c1	130
Cc1cc(=O)n2nc(NCc3ccc(C(=O)NCc4ccccc4F)cc3)nc2[nH]1	125

Reprinted from the entries so far, 2 compounds:
SMILES	host macrophage viability [%]
Cc1nc(OCC(=O)Nc2cc(F)ccc2F)c2c(C)c(C)oc2n1	125
Cc1cccn2c(=O)nc(SCc3c(F)cccc3Cl)nc12	113
